# Measurements as given in the supplement of paper PMC3334620.
# Over roughly 33,000 sequences, “E-score (-0.5 to 0.5)” has its median near -0.016; the highest 2% begin near 0.3. Some of the results follow.
# Molecular target: T1, Yer184c (UniProt P39961)
# T1 sequence: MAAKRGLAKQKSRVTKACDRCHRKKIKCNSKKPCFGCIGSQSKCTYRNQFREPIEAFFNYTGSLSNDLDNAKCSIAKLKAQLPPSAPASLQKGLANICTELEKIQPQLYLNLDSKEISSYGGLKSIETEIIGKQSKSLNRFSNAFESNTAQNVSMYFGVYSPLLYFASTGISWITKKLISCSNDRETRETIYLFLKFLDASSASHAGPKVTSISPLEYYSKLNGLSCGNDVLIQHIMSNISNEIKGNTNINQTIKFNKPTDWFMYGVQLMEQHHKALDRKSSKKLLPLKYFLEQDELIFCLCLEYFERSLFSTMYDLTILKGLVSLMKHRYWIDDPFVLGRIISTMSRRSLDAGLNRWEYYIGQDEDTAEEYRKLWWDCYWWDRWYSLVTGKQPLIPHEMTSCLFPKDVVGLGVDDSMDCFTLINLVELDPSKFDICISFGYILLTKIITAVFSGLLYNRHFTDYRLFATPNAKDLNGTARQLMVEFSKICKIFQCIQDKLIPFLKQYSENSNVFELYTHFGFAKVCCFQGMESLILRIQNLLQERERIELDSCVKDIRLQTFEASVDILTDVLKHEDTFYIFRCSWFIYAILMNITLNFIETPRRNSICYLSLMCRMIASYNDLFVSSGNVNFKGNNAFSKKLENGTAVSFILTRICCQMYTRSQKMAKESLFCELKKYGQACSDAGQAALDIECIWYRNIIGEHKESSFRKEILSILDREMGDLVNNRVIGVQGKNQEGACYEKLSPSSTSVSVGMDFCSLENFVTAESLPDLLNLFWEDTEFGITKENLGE
# Assay: PBM E-score (8-mer binding enrichment) (E-score (-0.5 to 0.5)); higher = stronger / more preferred TF binding
# Conditions: protein concentration: 100 nM; construct: GST-full length
# In short: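 GST-tagged yeast TFs (full-length or DNA-binding domain) were made by PURExpress in vitro transcription/translation and applied at about 100-200 nM to universal all-10-mer Agilent arrays. The arrays were made double-stranded by primer extension, on fresh or once-stripped slides. Bound protein was detected with fluorescent anti-GST, and scans were normalised with masliner. Each ungapped eight-base word, pooled with its reverse complement, received an E-score (modified Wilcoxon-Mann-Whitney statistic) from the Universal PBM Analysis Suite.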
row,Sequence,PBM E-score
1,GAGGTCAA,-0.117
2,ATCCAACC,-0.124
3,GAAGAGGC,-0.0568
4,AGCGTAGG,-0.167
5,GCTGAGAC,0.127
6,CGAGCTAA,0.0895
7,AGGCCTAT,-0.0243
8,GCTAATGA,-0.11
9,GATGCAAA,-0.00873
10,GGCGTGAC,0.058
11,GATGCCGA,0.319
12,AACATCCT,-0.0642
13,GCTGGAGA,-0.2
14,AGACGGCT,0.0132
15,GCCGGGTA,0.107
16,ACACTTGC,-0.0473
17,GTATAACA,0.166
18,ATACTCAG,0.145
19,CCATGATA,-0.088
20,AGAGACCT,-0.186
21,ACATAAGC,-0.0118
22,GTGCACCA,-0.0592

row,Sequence,PBM E-score
1,CATCTAGA,0.0183
2,TGTTAACA,0.111
3,ACTTTTAG,0.05
4,GCTAGGAC,-0.0463
5,TCCCTCAA,-0.1
6,GATTCGGA,0.329
7,ACGTGTCG,-0.125
8,CATTGGCC,-0.161
9,ATGGTCGC,-0.0296
10,GGATATAA,0.29
11,CCTACCCA,-0.257
12,GCTGCGAA,0.0893
13,CGACACAA,-0.11
14,ACACAGCC,0.045
15,GGTTCTTA,-0.0176
16,AGATCACT,0.0556
17,CAGATAGC,-0.105
18,GGCCGGGA,0.292
19,TACGTCTA,-0.127
20,AGGTCGTC,-0.136
21,AATCACAT,-0.0341
22,AAGTACTT,-0.0298

# Looked up above.
# Entry for AACATCCT under PBM E-score: -0.0642
# Entry for GAAGAGGC under PBM E-score: -0.0568
# Entry for GCTGGAGA under PBM E-score: -0.2
# Entry for GATGCCGA under PBM E-score: 0.319
# Entry for GCCGGGTA under PBM E-score: 0.107

# Going on with the list.

row,Sequence,PBM E-score
1,GCCTCGGA,0.108
2,ACACACAT,0.0928
3,GACTCTCA,-0.182
4,CAGTTGAG,-0.238
5,CCAGACTC,-0.146
6,GTATGGTA,-0.0442
7,TATAGTCA,0.0719
8,AAGCTGAG,0.0292
9,CTAAGAGA,-0.0544
10,CGAGAACC,0.158
11,CCCCTAGG,-0.349
12,GAGAGCAC,-0.14
13,GACAGTAC,0.135
14,GCAGAAAC,0.172
15,AGATCGCG,0.07
16,AAGTTACG,0.0648
17,ACTAAAAG,0.139
18,GACACGCA,0.0313
19,GCTAGATA,0.00682
20,CACCACTA,-0.0564
21,GTAGATAC,0.043
22,CAGGACCC,-0.164

row,Sequence,PBM E-score
1,CGCAGTGA,-0.0244
2,ATTGTAAC,0.101
3,CCAGGACG,-0.121
4,GCAGGTCC,-0.0921
5,CCACGAAC,0.0982
6,ACATGACG,-0.118
7,GAATCTAC,0.0543
8,CTTAGTTC,0.125
9,ACCGTTCT,-0.0197
10,AAGACGGC,0.0294
11,GAGTGCAA,0.0952
12,TCAAAGGA,-0.113
13,ACCACAGT,0.00697
14,CGCAATGC,-0.0706
15,ATGTTATG,0.0758
16,ATTCACAG,0.12
17,ATGAGAGG,-0.341
18,AGCCCGTA,-0.276
19,ACGAAGAA,0.258
20,AGAGCTTG,-0.122
